Results published in PubChem BioAssay AID192 (DTP/NCI, 2004).
The list does not hold the whole screen: it gathers tests that were run many times, whatever their T/C, doses with no T/C, and many T/C values between a quarter and a half above the control. Other doses and runs of a compound stand elsewhere. T/C gives the treated animals as a percentage of the vehicle group. Some doses have a count of surviving animals in place of a T/C: the source files T/C as zero there, which appears to mark a toxic dose or a test without result, not a measured value. Some doses without a T/C left all or most animals alive at the check, yet need not have been tolerated: survival well below the control is almost never listed, so the zero probably covers shortened survival too. Survivors were counted at the toxicity check, usually on the fifth day, unless a day is given; later deaths do not show. Schedules are NCI's codes, taken here to give the interval after Q, in days (D) or hours (H), and the number of doses after X. Brackets with × count equal records among those shown. Some entries were tested several times; their values stand side by side, smallest first. Where survival is the endpoint, this PubChem deposit counts one and a half times the control or more as active, and values a quarter to a half above the control carry no call in these data; other NCI protocols may use other cut-offs. Some T/C values carry the count of animals alive at the toxicity check (mostly the fifth day); without a count, all were alive then.

Tested on: BDF1 mice, B16 melanoma ip, median survival T/C
Assay: NCI In Vivo Anticancer Drug Screen. Data for tumor model B16 Melanoma (intraperitoneal) in B6D2F1 (BDF1) mice
Conditions: T/C endpoint: median survival time, schedule: Q01DX009 (ip), higher T/C = longer survival
In short: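 Values are ratios of treated (T) to vehicle-control (C) measurements of survival or tumor size in tumor-bearing mice.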

[1] = dose: 25.0 mg/kg/injection, vehicle: saline
[2] = dose: 30.0 mg/kg/injection, vehicle: Klucel (hydroxypropylcellulose) (HPC)
[3] = dose: 50.0 mg/kg/injection, vehicle: Klucel (hydroxypropylcellulose) (HPC)
[4] = dose: 50.0 mg/kg/injection, vehicle: saline
[5] = dose: 60.0 mg/kg/injection, vehicle: Klucel (hydroxypropylcellulose) (HPC)
[6] = dose: 100.0 mg/kg/injection, vehicle: Klucel (hydroxypropylcellulose) (HPC)
[7] = dose: 100.0 mg/kg/injection, vehicle: saline
[8] = dose: 200.0 mg/kg/injection, vehicle: Klucel (hydroxypropylcellulose) (HPC)
[9] = dose: 200.0 mg/kg/injection, vehicle: saline

Compound: S=c1nc[nH]c2nc[nH]c12
- T/C (dose: 10.0 mg/kg/injection, vehicle: other, evaluated on day 45): 107 and 115 % of control
- T/C (dose: 10.0 mg/kg/injection, vehicle: other, evaluated on day 60): 97 and 98 % of control
- T/C (dose: 15.0 mg/kg/injection, vehicle: Klucel (hydroxypropylcellulose) (HPC)): 90, 94, 97, 102, 105, 109, 115, 121 % of control
- T/C (dose: 20.0 mg/kg/injection, vehicle: other, evaluated on day 45): 102 and 106 % of control
- T/C (dose: 20.0 mg/kg/injection, vehicle: other, evaluated on day 60): 101 and 105 % of control
- T/C (dose: 25.0 mg/kg/injection, vehicle: Klucel (hydroxypropylcellulose) (HPC)): 94, 95, 96, 97 (2×), 102 (2×), 102 [4 of 6 alive], 103, 105, 107, 111, 113, 114, 123 % of control
- T/C (dose: 25.0 mg/kg/injection, vehicle: saline with Tween-80, evaluated on day 45): 100 % of control
- T/C (dose: 25.0 mg/kg/injection, vehicle: saline with Tween-80, evaluated on day 50): 95 % of control
- T/C (dose: 25.0 mg/kg/injection, vehicle: saline with Tween-80, evaluated on day 60): 90 [5 of 6 alive], 92, 97, 102 % of control
- survivor count (dose: 25.0 mg/kg/injection, vehicle: saline with Tween-80): 6 of 6
- T/C [1]: 92 (2×), 105, 107, 113, 115 % of control
- survivor count [1]: 6 of 6
- T/C [2]: 96, 110, 112, 117 % of control
- survivor count [2]: 10 of 10
- T/C (dose: 40.0 mg/kg/injection, vehicle: other, evaluated on day 45): 86 and 106 % of control
- T/C (dose: 40.0 mg/kg/injection, vehicle: other, evaluated on day 60): 97 and 102 % of control
- survivor count (dose: 45.0 mg/kg/injection, vehicle: other): 9 of 10
- T/C [3]: 86 (2×), 90 (2×), 92 [4 of 6 alive], 94, 100, 100 [5 of 6 alive], 102, 104, 126 % of control
- survivor count [3]: 6 of 6
- survivor count (dose: 50.0 mg/kg/injection, vehicle: acid diluted with saline): 5 of 6
- T/C (dose: 50.0 mg/kg/injection, vehicle: saline with Tween-80, evaluated on day 45): 92 % of control
- T/C (dose: 50.0 mg/kg/injection, vehicle: saline with Tween-80, evaluated on day 50): 87 % of control
- T/C (dose: 50.0 mg/kg/injection, vehicle: saline with Tween-80, evaluated on day 60): 88, 92, 97 % of control
- survivor count (dose: 50.0 mg/kg/injection, vehicle: saline with Tween-80): 6 of 6 (2×)
- T/C [4]: 87, 94, 97 [4 of 6 alive], 113 % of control
- survivor count [4]: 6 of 7 and 6 of 6
- T/C [5]: 90, 94, 102 % of control
- survivor count [5]: 10 of 10
- survivor count (dose: 60.0 mg/kg/injection, vehicle: saline): 6 of 6
- survivor count (dose: 80.0 mg/kg/injection, vehicle: other): 9 of 10 and 10 of 10
- survivor count (dose: 90.0 mg/kg/injection, vehicle: other): 2 of 10
- T/C [6]: 88, 89 [4 of 6 alive], 97, 105 % of control
- survivor count [6]: 4 of 6 and 6 of 6
- survivor count (dose: 100.0 mg/kg/injection, vehicle: acid diluted with saline): 6 of 6
- T/C (dose: 100.0 mg/kg/injection, vehicle: saline with Tween-80, evaluated on day 50): 92 % of control
- T/C (dose: 100.0 mg/kg/injection, vehicle: saline with Tween-80, evaluated on day 60): 100 % of control
- survivor count (dose: 100.0 mg/kg/injection, vehicle: saline with Tween-80): 6 of 6 (3×)
- T/C [7]: 88, 92, 93, 100, 115 % of control
- survivor count [7]: 6 of 6 and 7 of 7
- survivor count (dose: 120.0 mg/kg/injection, vehicle: Klucel (hydroxypropylcellulose) (HPC)): 9 of 10 and 10 of 10
- survivor count (dose: 120.0 mg/kg/injection, vehicle: saline): 6 of 6
- T/C [8]: 88, 92, 96, 114 % of control
- survivor count [8]: 5 of 6 and 6 of 6
- survivor count (dose: 200.0 mg/kg/injection, vehicle: acid diluted with saline): 6 of 6
- survivor count (dose: 200.0 mg/kg/injection, vehicle: saline with Tween-80): 4 of 6, 5 of 6, 6 of 6 (2×)
- T/C [9]: 87 and 97 % of control
- survivor count [9]: 5 of 6, 6 of 6, 7 of 7
- survivor count (dose: 240.0 mg/kg/injection, vehicle: Klucel (hydroxypropylcellulose) (HPC)): 9 of 10 and 10 of 10
